Source: US5973204A (priority 1997, dated 1999)

Experiment: in vitro
Conditions: breast carcinoma, other tumor cells

COc1cc2c(c(OC)c1OC)-c1ccc(SC)c(=O)cc1[C@@H](NC(C)=O)CC2 [thiocolchicine]
MCC: 0.6 nM
